Test results from patent US20160272721A1.
No constants are given. Whether binding was seen depends on the method and setting. For some assays here: Binding seen in cells or lysates may run through a third protein. Some binding calls cover weakened binding; strength is not graded here. For some assays here: Sequences can lack the tags named with a protein.

Amino acid sequences for entries named in this document (tags omitted). Residues count along the entry.
UniProt Q62432, residues 2-467: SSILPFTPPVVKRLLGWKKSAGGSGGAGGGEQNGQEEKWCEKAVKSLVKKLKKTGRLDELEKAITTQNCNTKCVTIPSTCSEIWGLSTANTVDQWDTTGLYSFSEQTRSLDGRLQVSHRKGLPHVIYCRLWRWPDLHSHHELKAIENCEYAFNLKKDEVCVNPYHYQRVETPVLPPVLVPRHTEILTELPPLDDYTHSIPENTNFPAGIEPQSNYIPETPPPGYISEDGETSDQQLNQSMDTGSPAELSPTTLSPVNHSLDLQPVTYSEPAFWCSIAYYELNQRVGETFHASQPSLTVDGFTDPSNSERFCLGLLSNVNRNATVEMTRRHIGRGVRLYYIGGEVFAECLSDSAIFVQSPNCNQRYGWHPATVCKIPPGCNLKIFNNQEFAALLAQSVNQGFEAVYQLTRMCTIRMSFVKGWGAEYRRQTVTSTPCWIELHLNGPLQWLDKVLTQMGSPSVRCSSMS
UniProt Q8BUN5, residues 2-425: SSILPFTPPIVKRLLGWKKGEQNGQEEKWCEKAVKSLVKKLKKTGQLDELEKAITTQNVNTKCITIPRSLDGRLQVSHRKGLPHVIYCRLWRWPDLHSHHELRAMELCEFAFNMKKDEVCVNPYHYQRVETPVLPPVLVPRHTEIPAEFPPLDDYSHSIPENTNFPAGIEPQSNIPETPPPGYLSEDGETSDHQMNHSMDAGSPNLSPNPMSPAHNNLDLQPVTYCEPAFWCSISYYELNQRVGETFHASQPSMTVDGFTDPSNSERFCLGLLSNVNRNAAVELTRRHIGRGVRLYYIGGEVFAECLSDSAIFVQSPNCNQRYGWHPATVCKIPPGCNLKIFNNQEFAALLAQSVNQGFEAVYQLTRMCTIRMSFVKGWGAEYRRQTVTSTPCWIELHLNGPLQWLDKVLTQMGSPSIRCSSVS
UniProt Q96AE4: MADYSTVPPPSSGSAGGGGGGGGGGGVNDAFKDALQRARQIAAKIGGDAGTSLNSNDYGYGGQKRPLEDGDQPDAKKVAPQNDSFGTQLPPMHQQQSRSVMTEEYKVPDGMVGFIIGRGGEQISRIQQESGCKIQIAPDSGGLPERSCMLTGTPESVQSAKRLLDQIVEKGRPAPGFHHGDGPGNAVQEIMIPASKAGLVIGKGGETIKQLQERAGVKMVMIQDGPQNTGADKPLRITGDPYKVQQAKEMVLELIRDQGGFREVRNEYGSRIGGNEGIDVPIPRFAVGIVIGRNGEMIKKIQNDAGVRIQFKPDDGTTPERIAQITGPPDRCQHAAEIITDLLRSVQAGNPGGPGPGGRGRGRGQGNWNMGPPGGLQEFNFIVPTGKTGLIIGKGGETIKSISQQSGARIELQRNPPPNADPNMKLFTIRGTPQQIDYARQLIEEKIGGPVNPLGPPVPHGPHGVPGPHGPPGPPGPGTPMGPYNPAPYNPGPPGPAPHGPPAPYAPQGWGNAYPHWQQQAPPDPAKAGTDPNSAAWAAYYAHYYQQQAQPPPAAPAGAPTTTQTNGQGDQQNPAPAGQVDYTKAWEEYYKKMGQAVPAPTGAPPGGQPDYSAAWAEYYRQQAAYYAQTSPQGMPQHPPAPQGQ
UniProt Q15796: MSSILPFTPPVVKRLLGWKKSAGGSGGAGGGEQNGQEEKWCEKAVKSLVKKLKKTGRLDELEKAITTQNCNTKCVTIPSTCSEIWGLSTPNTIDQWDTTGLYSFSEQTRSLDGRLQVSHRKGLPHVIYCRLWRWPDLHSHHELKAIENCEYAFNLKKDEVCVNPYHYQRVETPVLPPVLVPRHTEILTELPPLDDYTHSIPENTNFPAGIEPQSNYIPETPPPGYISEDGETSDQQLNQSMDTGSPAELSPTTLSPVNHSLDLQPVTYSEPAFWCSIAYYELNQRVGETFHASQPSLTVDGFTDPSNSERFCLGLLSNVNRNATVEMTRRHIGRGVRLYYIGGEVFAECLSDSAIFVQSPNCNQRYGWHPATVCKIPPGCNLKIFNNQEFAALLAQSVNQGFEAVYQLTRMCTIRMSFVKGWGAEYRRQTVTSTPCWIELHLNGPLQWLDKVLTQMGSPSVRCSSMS
UniProt P84022: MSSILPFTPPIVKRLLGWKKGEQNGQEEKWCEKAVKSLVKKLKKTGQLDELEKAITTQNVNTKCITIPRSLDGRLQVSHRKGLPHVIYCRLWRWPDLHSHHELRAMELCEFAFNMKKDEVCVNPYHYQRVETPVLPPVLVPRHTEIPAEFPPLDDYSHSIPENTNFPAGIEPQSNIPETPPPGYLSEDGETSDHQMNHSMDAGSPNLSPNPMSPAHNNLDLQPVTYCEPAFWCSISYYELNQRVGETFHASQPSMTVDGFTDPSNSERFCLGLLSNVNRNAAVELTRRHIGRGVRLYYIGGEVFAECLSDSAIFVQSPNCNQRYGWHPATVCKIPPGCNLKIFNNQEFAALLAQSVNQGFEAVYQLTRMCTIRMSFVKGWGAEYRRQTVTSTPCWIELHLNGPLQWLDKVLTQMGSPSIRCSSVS

How the values were obtained:
[1] = target: Smad2 (in mouse embryonic fibroblasts) (mouse) (UniProt Q62432); experiment: co-immunoprecipitation with anti-Smad2 antibody (FIG. 1e)
[2] = target: Smad3 (in mouse embryonic fibroblasts) (mouse) (UniProt Q8BUN5); experiment: co-immunoprecipitation with anti-Smad3 antibody (FIG. 1e)
[3] = target: T1, AIMP2 protein (wild type, full-length) (human) (UniProt Q13155); experiment: yeast two hybrid (FIG. 4c)
T1 sequence: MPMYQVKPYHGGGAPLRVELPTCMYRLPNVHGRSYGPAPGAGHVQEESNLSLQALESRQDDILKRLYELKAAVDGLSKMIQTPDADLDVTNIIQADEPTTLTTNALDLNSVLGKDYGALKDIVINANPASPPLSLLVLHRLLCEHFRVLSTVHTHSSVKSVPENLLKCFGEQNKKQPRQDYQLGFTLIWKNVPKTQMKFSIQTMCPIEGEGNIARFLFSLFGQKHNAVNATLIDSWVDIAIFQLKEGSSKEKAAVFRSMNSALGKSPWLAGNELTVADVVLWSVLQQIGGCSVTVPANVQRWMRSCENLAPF

[4] = target: T2, GST-AIMP2-F (human) (UniProt Q13155); experiment: in vitro pull-down, 35S-labelled protein with GST fusion on glutathione-Sepharose (FIG. 4d)
T2 sequence: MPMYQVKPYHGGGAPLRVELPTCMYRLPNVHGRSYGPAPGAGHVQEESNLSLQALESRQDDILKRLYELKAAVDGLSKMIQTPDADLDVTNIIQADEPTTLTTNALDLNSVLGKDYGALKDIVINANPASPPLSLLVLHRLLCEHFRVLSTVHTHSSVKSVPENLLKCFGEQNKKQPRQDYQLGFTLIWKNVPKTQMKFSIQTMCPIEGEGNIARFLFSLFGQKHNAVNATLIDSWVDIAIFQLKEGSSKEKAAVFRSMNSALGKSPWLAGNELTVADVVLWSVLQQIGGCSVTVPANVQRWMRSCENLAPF

[5] = target: FUSE-binding protein (UniProt Q96AE4); experiment: yeast two hybrid (FIG. 4e)
[6] = target: Smad2 (human) (human) (UniProt Q15796); experiment: yeast two hybrid (FIG. 4e)
[7] = target: Smad2 (human) (human) (UniProt Q15796); experiment: yeast two hybrid and in vitro pull-down
[8] = target: Smad3 (UniProt P84022); experiment: yeast two hybrid and in vitro pull-down
[9] = target: Smad2 (human) (human) (UniProt Q15796); experiment: co-immunoprecipitation from A549 cells with anti-Smad2 antibody (FIG. 2a)
[10] = target: Smad3 (UniProt P84022); experiment: co-immunoprecipitation from A549 cells with anti-Smad3 antibody (FIG. 2a)

Measured: binding

B1: AIMP2 (in mouse embryonic fibroblasts) (protein, UniProt Q8R010 1-320, looked up)
chain: MPMYQVKPYHGGSAPLHVELPTCMYRLPNVHSKTTSPATDAGHVQETSEPSLQALESRQDDILKRLYELKAAVDGLSKMIHTPDADLDVTNILQADEPTTLATNTLDLNSVLGKDYGALKDIVINANPASPPLSLLVLHRLLCERYRVLSTVHTHSSVKNVPENLVKCFGEQARKQSRHEYQLGFTLIWKNVPKTQMKFSVQTMCPIEGEGNIARFLFSLFGQKHNAVTLTLIDSWVDIAMFQLREGSSKEKAAVFRSMNSALGRSPWLVGNELTVADVVLWSVLQQTGGSSGAAPTNVQRWLKSCENLAPFSTALQLLK
binds: [1] | [2]

B2: AIMP2-DX2 protein (protein)
chain: MPMYQVKPYHGGGAPLRVELPTCMYRLPNVHGRSYGPAPGAGHVQDYGALKDIVINANPASPPLSLLVLHRLLCEHFRVLSTVHTHSSVKSVPENLLKCFGEQNKKQPRQDYQLGFTLIWKNVPKTQMKFSIQTMCPIEGEGNIARFLFSLFGQKHNAVNATLIDSWVDIAIFQLKEGSSKEKAAVFRSMNSALGKSPWLAGNELTVADVVLWSVLQQIGGCSVTVPANVQRWMRSCENLAPFNTALKLLK
binds: [3] | [4]

B3: AIMP2 protein (wild type, full-length) (protein)
chain: MPMYQVKPYHGGGAPLRVELPTCMYRLPNVHGRSYGPAPGAGHVQEESNLSLQALESRQDDILKRLYELKAAVDGLSKMIQTPDADLDVTNIIQADEPTTLTTNALDLNSVLGKDYGALKDIVINANPASPPLSLLVLHRLLCEHFRVLSTVHTHSSVKSVPENLLKCFGEQNKKQPRQDYQLGFTLIWKNVPKTQMKFSIQTMCPIEGEGNIARFLFSLFGQKHNAVNATLIDSWVDIAIFQLKEGSSKEKAAVFRSMNSALGKSPWLAGNELTVADVVLWSVLQQIGGCSVTVPANVQRWMRSCENLAPF
not listed: [1] | [2] | [3]
binds: all other assays above
